From paper PMC9342958 come the findings set out here.

Amino acid sequences for entries named in this document (tags omitted). Residues count along the entry.
UniProt Q9BXL6, residues 15-107: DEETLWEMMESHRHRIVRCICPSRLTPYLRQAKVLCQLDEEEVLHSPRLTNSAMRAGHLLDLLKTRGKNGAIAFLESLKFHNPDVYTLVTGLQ

Results are given in words; binding and its absence hold for the method and conditions named. For some of these results: In cells and extracts the contact can be indirect. Some results given as binding are weak or reduced against the parent protein; the word gives no strength. For some of these results: Where a sequence is shown, tags or fusion partners need not be part of it.

In assay [1] the target is CARD14 CARD fused to mEos3.1 (human) (UniProt Q9BXL6). Description: FRET or BRET; DAmFRET (Distributed Amphifluoric FRET) in living S. cerevisiae: protein fused to mEos3.1, GAL promoter, about 16 hr in galactose, part of mEos3.1 photoconverted to the acceptor form, AmFRET against expression level by flow cytometry.
In assay [2] the target is Hs BCL10-(EA3R)4-mEos3.2 (human) (UniProt O95999). Nature of the assay: FRET or BRET; DAmFRET in HEK293T cells: protein fused to mEos3.2, 48 hr after transfection, cells fixed in 4% PFA, photoconverted, AmFRET against expression level by flow cytometry.
Assay [3] addresses BCL10 full-length fused to mEos3.1 (human) (UniProt O95999). Nature of the assay: FRET or BRET; DAmFRET (Distributed Amphifluoric FRET) in living S. cerevisiae: protein fused to mEos3.1, GAL promoter, about 16 hr in galactose, part of mEos3.1 photoconverted to the acceptor form, AmFRET against expression level by flow cytometry. (Bioluminescence resonance energy transfer reports proximity on the nanometre scale.)

Assay [4] deals with BCL10 R58G full-length fused to mEos3.1 (human) (UniProt O95999). The assay is described as above.
The target in assay [5] is CARD11 CARD fused to mEos3.1 (human) (UniProt Q9BXL7). The description is as above.
For assay [6], the target named is CARD9 CARD R70W fused to mEos3.1 (human) (UniProt Q9H257). The description is as above.
For assay [7], the target named is CARD9 CARD fused to mEos3.2 (human) (UniProt Q9H257). Nature of the assay: FRET or BRET; DAmFRET in HEK293T cells: protein fused to mEos3.2, 48 hr after transfection, cells fixed in 4% PFA, photoconverted, AmFRET against expression level by flow cytometry.
The target in assay [8] is BCL10 CARD fused to mEos3.1 (human) (UniProt O95999). Description: FRET or BRET; DAmFRET (Distributed Amphifluoric FRET) in living S. cerevisiae: protein fused to mEos3.1, GAL promoter, about 16 hr in galactose, part of mEos3.1 photoconverted to the acceptor form, AmFRET against expression level by flow cytometry.
The target in assay [9] is CARD9 1-142 fused to mEos3.1 (human) (UniProt Q9H257). Described as above.
Assay [10] has as its target CARD9 full-length fused to mEos3.1 (human) (UniProt Q9H257). The assay is described as above.
Assay [11] addresses CARD9 full-length fused to mEos3.2 (human) (UniProt Q9H257). Nature of the assay: FRET or BRET; DAmFRET in HEK293T cells: protein fused to mEos3.2, 48 hr after transfection, cells fixed in 4% PFA, photoconverted, AmFRET against expression level by flow cytometry.
For assay [12], the target named is endogenous untagged CARD9 of THP-1 cells (human (endogenous in THP-1)) (UniProt Q9H257). Nature of the assay: SEC; size exclusion chromatography of lysates of THP-1 cells with or without β-glucan stimulation (24 hr), fractions read by capillary immunodetection of CARD9 and BCL10. A general note: In gel filtration, larger molecules generally elute earlier.
Assay [13] concerns the target CARD9 I107E full-length fused to mEos3.1 (human) (UniProt Q9H257). Description: FRET or BRET; DAmFRET (Distributed Amphifluoric FRET) in living S. cerevisiae: protein fused to mEos3.1, GAL promoter, about 16 hr in galactose, part of mEos3.1 photoconverted to the acceptor form, AmFRET against expression level by flow cytometry.

Regarding “CARD14 CARD fused to mEos3.1 (from UniProt Q9BXL6 15-107) (domain or fragment)”, the binding result in assay [1] is recorded as “binds”.

B1: Hs BCL10-(EA3R)4-mEos3.2 (protein, UniProt O95999 1-233)
chain: MEPTAPSLTEEDLTEVKKDALENLRVYLCEKIIAERHFDHLRAKKILSREDTEEISCRTSSRKRAGKLLDYLQENPKGLDTLVESIRREKTQNFLIQKITDEVLKLRNIKLEHLKGLKCSSCEPFPDGATNNLSRSNSDESNFSEKLRASTVMYHPEGESSTTPFFSTNSSLNLPVLEVGRTENTIFSSTTLPRPGDPGAPPLPPDLQLEEEGTCANSSEMFLPLRSRTVSRQ
B1: in assay [2], the binding entry is “binds”.

B2: BCL10 full-length fused to mEos3.1 (protein, UniProt O95999 1-233)
chain: MEPTAPSLTEEDLTEVKKDALENLRVYLCEKIIAERHFDHLRAKKILSREDTEEISCRTSSRKRAGKLLDYLQENPKGLDTLVESIRREKTQNFLIQKITDEVLKLRNIKLEHLKGLKCSSCEPFPDGATNNLSRSNSDESNFSEKLRASTVMYHPEGESSTTPFFSTNSSLNLPVLEVGRTENTIFSSTTLPRPGDPGAPPLPPDLQLEEEGTCANSSEMFLPLRSRTVSRQ
In the case of B2, in assay [3], the binding entry is on record as “binds”.

B3: BCL10 R58G full-length fused to mEos3.1 (protein, UniProt O95999 1-233)
chain: MEPTAPSLTEEDLTEVKKDALENLRVYLCEKIIAERHFDHLRAKKILSREDTEEISCGTSSRKRAGKLLDYLQENPKGLDTLVESIRREKTQNFLIQKITDEVLKLRNIKLEHLKGLKCSSCEPFPDGATNNLSRSNSDESNFSEKLRASTVMYHPEGESSTTPFFSTNSSLNLPVLEVGRTENTIFSSTTLPRPGDPGAPPLPPDLQLEEEGTCANSSEMFLPLRSRTVSRQ
In the case of B3, the binding entry in [4] is reported as “binds”.

B4: CARD11 CARD fused to mEos3.1 (domain or fragment, UniProt Q9BXL7 18-110)
chain: EEDALWENVECNRHMLSRYINPAKLTPYLRQCKVIDEQDEDEVLNAPMLPSKINRAGRLLDILHTKGQRGYVVFLESLEFYYPELYKLVTGKE
For B4, the binding result in assay [5] was “binds”.

B5: CARD9 CARD R70W fused to mEos3.1 (domain or fragment, UniProt Q9H257 6-98)
chain: NDDECWSVLEGFRVTLTSVIDPSRITPYLRQCKVLNPDDEEQVLSDPNLVIRKRKVGVLLDILQWTGHKGYVAFLESLELYYPQLYKKVTGKE
Take B5: the binding result in assay [6] is “binds”.

B6: CARD9 CARD fused to mEos3.2 (domain or fragment, UniProt Q9H257 6-98)
chain: NDDECWSVLEGFRVTLTSVIDPSRITPYLRQCKVLNPDDEEQVLSDPNLVIRKRKVGVLLDILQRTGHKGYVAFLESLELYYPQLYKKVTGKE
As to B6, the binding result in assay [7] is on record as “binds”.

B7: BCL10 CARD fused to mEos3.1 (domain or fragment, UniProt O95999 13-101)
chain: LTEVKKDALENLRVYLCEKIIAERHFDHLRAKKILSREDTEEISCRTSSRKRAGKLLDYLQENPKGLDTLVESIRREKTQNFLIQKITD
Consider B7, for which, in assay [8], the binding entry is given as “binds”.

B8: CARD9 1-142 fused to mEos3.1 (domain or fragment, UniProt Q9H257 1-142)
chain: MSDYENDDECWSVLEGFRVTLTSVIDPSRITPYLRQCKVLNPDDEEQVLSDPNLVIRKRKVGVLLDILQRTGHKGYVAFLESLELYYPQLYKKVTGKEPARVFSMIIDASGESGLTQLLMTEVMKLQKKVQDLTALLSSKDD
As to B8, the binding result in assay [9] is listed as “binds”.

B9: CARD9 full-length fused to mEos3.1 (protein, UniProt Q9H257 1-536)
chain: MSDYENDDECWSVLEGFRVTLTSVIDPSRITPYLRQCKVLNPDDEEQVLSDPNLVIRKRKVGVLLDILQRTGHKGYVAFLESLELYYPQLYKKVTGKEPARVFSMIIDASGESGLTQLLMTEVMKLQKKVQDLTALLSSKDDFIKELRVKDSLLRKHQERVQRLKEECEAGSRELKRCKEENYDLAMRLAHQSEEKGAALMRNRDLQLEIDQLKHSLMKAEDDCKVERKHTLKLRHAMEQRPSQELLWELQQEKALLQARVQELEASVQEGKLDRSSPYIQVLEEDWRQALRDHQEQANTIFSLRKDLRQGEARRLRCMEEKEMFELQCLALRKDSKMYKDRIEAILLQMEEVAIERDQAIATREELHAQHARGLQEKDALRKQVRELGEKADELQLQVFQCEAQLLAVEGRLRRQQLETLVLSSDLEDGSPRRSQELSLPQDLEDTQLSDKGCLAGGGSPKQPFAALHQEQVLRNPHDAGLSSGEPPEKERRRLKESFENYRRKRALRKMQKGWRQGEEDRENTTGSDNTDTEGS
For B9, in assay [10], the binding entry is reported as “binds”.

B10: CARD9 full-length fused to mEos3.2 (protein, UniProt Q9H257 1-536)
chain: MSDYENDDECWSVLEGFRVTLTSVIDPSRITPYLRQCKVLNPDDEEQVLSDPNLVIRKRKVGVLLDILQRTGHKGYVAFLESLELYYPQLYKKVTGKEPARVFSMIIDASGESGLTQLLMTEVMKLQKKVQDLTALLSSKDDFIKELRVKDSLLRKHQERVQRLKEECEAGSRELKRCKEENYDLAMRLAHQSEEKGAALMRNRDLQLEIDQLKHSLMKAEDDCKVERKHTLKLRHAMEQRPSQELLWELQQEKALLQARVQELEASVQEGKLDRSSPYIQVLEEDWRQALRDHQEQANTIFSLRKDLRQGEARRLRCMEEKEMFELQCLALRKDSKMYKDRIEAILLQMEEVAIERDQAIATREELHAQHARGLQEKDALRKQVRELGEKADELQLQVFQCEAQLLAVEGRLRRQQLETLVLSSDLEDGSPRRSQELSLPQDLEDTQLSDKGCLAGGGSPKQPFAALHQEQVLRNPHDAGLSSGEPPEKERRRLKESFENYRRKRALRKMQKGWRQGEEDRENTTGSDNTDTEGS
Consider B10, for which, in assay [11], the binding result is listed as “binds”.

B11: endogenous untagged CARD9 of THP-1 cells (protein, UniProt Q9H257 1-536)
chain: MSDYENDDECWSVLEGFRVTLTSVIDPSRITPYLRQCKVLNPDDEEQVLSDPNLVIRKRKVGVLLDILQRTGHKGYVAFLESLELYYPQLYKKVTGKEPARVFSMIIDASGESGLTQLLMTEVMKLQKKVQDLTALLSSKDDFIKELRVKDSLLRKHQERVQRLKEECEAGSRELKRCKEENYDLAMRLAHQSEEKGAALMRNRDLQLEIDQLKHSLMKAEDDCKVERKHTLKLRHAMEQRPSQELLWELQQEKALLQARVQELEASVQEGKLDRSSPYIQVLEEDWRQALRDHQEQANTIFSLRKDLRQGEARRLRCMEEKEMFELQCLALRKDSKMYKDRIEAILLQMEEVAIERDQAIATREELHAQHARGLQEKDALRKQVRELGEKADELQLQVFQCEAQLLAVEGRLRRQQLETLVLSSDLEDGSPRRSQELSLPQDLEDTQLSDKGCLAGGGSPKQPFAALHQEQVLRNPHDAGLSSGEPPEKERRRLKESFENYRRKRALRKMQKGWRQGEEDRENTTGSDNTDTEGS
B11: the binding result in assay [12] is “binds”.

B12: CARD9 I107E full-length fused to mEos3.1 (protein, UniProt Q9H257 1-536)
chain: MSDYENDDECWSVLEGFRVTLTSVIDPSRITPYLRQCKVLNPDDEEQVLSDPNLVIRKRKVGVLLDILQRTGHKGYVAFLESLELYYPQLYKKVTGKEPARVFSMIEDASGESGLTQLLMTEVMKLQKKVQDLTALLSSKDDFIKELRVKDSLLRKHQERVQRLKEECEAGSRELKRCKEENYDLAMRLAHQSEEKGAALMRNRDLQLEIDQLKHSLMKAEDDCKVERKHTLKLRHAMEQRPSQELLWELQQEKALLQARVQELEASVQEGKLDRSSPYIQVLEEDWRQALRDHQEQANTIFSLRKDLRQGEARRLRCMEEKEMFELQCLALRKDSKMYKDRIEAILLQMEEVAIERDQAIATREELHAQHARGLQEKDALRKQVRELGEKADELQLQVFQCEAQLLAVEGRLRRQQLETLVLSSDLEDGSPRRSQELSLPQDLEDTQLSDKGCLAGGGSPKQPFAALHQEQVLRNPHDAGLSSGEPPEKERRRLKESFENYRRKRALRKMQKGWRQGEEDRENTTGSDNTDTEGS
In the case of B12, in [13], the binding entry is recorded as “binds”.
